PubChem BioAssay AID1259308 – NCATS, 2017

Aim: 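Knock-downs that increase output of a recombinant reporter protein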 (primary screen)
Cells: human HEK293 embryonic kidney cells stably expressing firefly luciferase (HEK-CMV-Luc2-Hygro)
Knock-down reagent: single siRNA against human genes, 0.8 pmol siRNA per well
Timing: 72 h
Detection: 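Reporter luminescence and viable-cell signal on separate replicate plates, given as percent of non-targeting control and median/MAD z-scores, plus per-cell luciferase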
Direction: total luciferase, z-score and total luciferase, % of control: higher = more reporter protein produced; luciferase per cell, z-score: higher = more reporter output per viable cell; viable cells, % of control: higher = more viable cells
Call rule: 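Active when the median/MAD z-score for overall luciferase is greater than 3; a gene was taken forward for validation with new siRNAs if at least two of its three siRNAs passed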
Meaning of the calls: active = raised luciferase; inactive = no rise
Here is one part, drawn at random, of about 59,000 reagents. About 1,510 of them (2.6%) were called active. 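Calls use total luciferase alone and ignore viability, so some active siRNAs may act by altering cell number.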

Gene	PubChem SID	total luciferase, z-score	total luciferase, % of control	luciferase per cell, z-score	viable cells, % of control	Call
DUSP14	SID160729879	-0.834	65.3	-0.472	82.6	inactive
DUSP14	SID160729880	-0.454	72.9	-0.796	100	inactive
DUSP14	SID160729881	0.146	84.8	-0.525	109	inactive
SLC38A5	SID160754360	1.16	105	0.727	96.9	inactive
SLC38A5	SID160754361	0.654	94.9	-0.276	114	inactive
SLC38A5	SID160754362	-0.486	72.2	-0.0734	82.3	inactive
TUBAL3	SID160749626	-0.137	79.2	0.172	84.5	inactive
TUBAL3	SID160749627	0.859	99	0.157	106	inactive
TUBAL3	SID160749628	2.4	130	1.41	100	inactive
BOLA2	SID160725489	1.51	112	2.6	63.1	inactive
BOLA2	SID160725490	-1.26	56.8	-0.971	81.9	inactive
BOLA2	SID160725491	0.526	92.3	-0.127	107	inactive
NDRG2	SID160745974	-1.57	50.7	-0.644	67.1	inactive
NDRG2	SID160745975	-0.393	74.1	-0.228	87.9	inactive
NDRG2	SID160745976	0.715	96.1	0.601	91.7	inactive
TMPRSS11B	SID160757189	1.65	115	0.6	109	inactive
TMPRSS11B	SID160757190	-0.0593	80.7	-0.291	97.4	inactive
TMPRSS11B	SID160757191	0.468	91.2	-0.177	107	inactive
LMX1B	SID160776681	1.18	105	0.674	98.7	inactive
LMX1B	SID160776682	0.855	98.9	0.417	99	inactive
LMX1B	SID160776683	0.264	87.1	0.167	93.2	inactive
SLC22A13	SID160722100	1.35	109	1.78	76	inactive
SLC22A13	SID160722101	-0.499	72	0.0831	78.7	inactive
SLC22A13	SID160722102	-1	62	-0.726	83.9	inactive
TAX1BP1	SID160721063	2.49	131	2.21	82.1	inactive
TAX1BP1	SID160721064	1.55	113	2.14	71.7	inactive
TAX1BP1	SID160721065	-0.345	75	-0.49	95.4	inactive
ATAT1	SID160749873	0.608	94	0.728	86.7	inactive
ATAT1	SID160749875	-0.308	75.8	-0.341	92.6	inactive
ATAT1	SID160749876	-1.71	47.8	-1.01	69.7	inactive
LINC01776	SID160734676	0.303	87.9	-0.21	104	inactive
LINC01776	SID160773363	-0.636	69.2	0.301	71.5	inactive
LINC01776	SID160773364	0.505	91.9	0.456	91.1	inactive
CTDP1	SID160721604	-1.3	56.1	-1.51	93.2	inactive
CTDP1	SID160721605	-1.42	53.7	-2.26	109	inactive
CTDP1	SID160721606	-1.38	54.5	-2.25	110	inactive
THOC3	SID160752160	0.716	96.1	0.115	104	inactive
THOC3	SID160752161	1.12	104	0.874	92.4	inactive
THOC3	SID160752162	3.81	158	2.98	80.5	active
